Laboratory results from the supplement of paper PMC10727501.
The other results are listed elsewhere or left out. Repeats in this data set agree poorly, so a single value says little.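 Researchers measured free-swimming zebrafish larvae's O-bend response probability to dark flashes (naive: first five; training: remaining flashes of four 60-flash blocks; test: later 60-flash block) and OMR turning toward alternating leftward/rightward LED motion. Six treated larvae were compared to sixty 0.1% DMSO controls, with |SSMD|≥2 marking a hit.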

The molecules below were run on Danio rerio larvae (5 dpf, TLF) (assay: OMR-Perf (SSMD vs DMSO vehicle); higher = higher than vehicle (e.g. higher dark-flash O-bend response probability, or better optomotor performance)). Conditions: 10 µM; pre-incubation: 30-90 min.
For `CC(C)c1nc(CN(C)C(=O)N[C@H](C(=O)N[C@@H](Cc2ccccc2)C[C@H](O)[C@H](Cc2ccccc2)NC(=O)OCc2cncs2)C(C)C)cs1` [Ritonavir], the OMR-Perf was 0.209.
With `CC(=O)OCC(=O)[C@]1(O)CC[C@H]2[C@@H]3CCC4=CC(=O)C=C[C@]4(C)[C@@H]3[C@H](O)C[C@@]21C` [Prednisolone acetate (Omnipred)] the OMR-Perf was 0.193.
Molecule `OCC(CO)N[C@H]1C[C@@](O)(CO)[C@@H](O)[C@H](O)[C@H]1O` [Voglibose] has an OMR-Perf of 0.0755.
For `CC(=O)O.N=C(N)N/N=C/c1c(Cl)cccc1Cl` [Guanabenz Acetate], the OMR-Perf was -0.921.
In the case of `CC(C)(C)NCC(O)c1ccc(O)c(CO)c1.O=S(=O)(O)O` (stereo unspecified) [Salbutamol sulfate (Albuterol)], the OMR-Perf is reported as -0.405.
Molecule `CN(C)C(=O)c1cc2cnc(Nc3ccc(N4CCNCC4)cn3)nc2n1C1CCCC1` has an OMR-Perf of -0.234.
Work on `C=CC(=O)Nc1cccc(Oc2nc(Nc3ccc(N4CCN(C)CC4)cc3)ncc2Cl)c1` yielded an OMR-Perf of -0.278.
Work on `CN(c1nccc(=O)[nH]1)C1CCN(c2nc3ccccc3n2Cc2ccc(F)cc2)CC1` [Mizolastine (Mizollen)] yielded an OMR-Perf of 0.256.
With `CCn1c2ccccc2c2cc(Nc3ccnc(NCCCN4CCOCC4)n3)ccc21` the OMR-Perf was -0.355.
With `O=c1cc(-c2ccc(O)cc2)oc2cc(O)cc(O)c12` [Apigenin] the OMR-Perf was -0.352.
`CC(=O)OCC(=O)NCCCOc1cccc(CN2CCCCC2)c1.Cl` [Roxatidine Acetate HCl] showed an OMR-Perf of 0.0834.
